Some of these results come from one statement about several compounds together.
System: Aedes mosquito larvae
Assay: PDI assay of light-activated larvicidal activity (larva mobility)
Type: in vivo, A. aegypti and A. albopictus
Conditions: 1/10000 dilution of the stocks
From the text: 2nd to 4th instar larvae of A. aegypti and A. albopictus (or Aedes mosquitoes in brief) were used in the experiments, as they are known vectors of Zika fever and other viral diseases. Colonies of both species were reared to provide the larvae of all instars under the approved conditions of a humidified “warm room” (˜28 C, ˜80% relative humidity).
The PDI assay to determine the larvicidal activities of the PS in Table 1 was based on procedures developed for mammalian and protozoa cells with modifications for mosquito larvae. Briefly, each PS was tested in 3-4 concentrations in 10-fold serial dilutions, starting with a 1/100 dilution of the stock solution (see Table 1 for the PS stock concentrations) as the highest. The solvent (DMSO) at these PS concentrations was ≤1%, which was pre-tested alone and shown to have no larvicidal activity. Larvae were PS-exposed (and not exposed as a control) in groups of 20 per 5 mL of water per well of a 6-well plate, in duplicate. All plates were foil-wrapped for overnight incubation under dark conditions in the “warm room.” After 16 hours of PS exposure, one of the duplicate 6-well plates was un-wrapped and the lid removed for exposure from the top with white light from a fluorescent tube-containing box (1-2 J/cm^2). […] Larvae were checked for mobility and readings recorded hourly for up to 7 hours. […]

Substance | time to kill 2nd instar larvae completely
Meso- Tetraphenylpor- phine disulphonic acid dihydrochoride [TPPS2] | 2 to 5 h
Meso-tetra(4- n,n,n- trimethylanili- nium) porphine tetrachloride [TMAP] | 2 to 5 h

Source: patent publication US10070648B2, “Photodynamic insecticides” (ROSALIND FRANKLIN UNIVERSITY OF MEDICINE AND SCIENCE, priority 2016, dated 2018)
